From PubChem BioAssay AID493014 (National Center for Advancing Translational Sciences (NCATS), 2011)
Hit rate of the full screen: of about 340,000 compounds, about 170 (0.05%) were called active. Inconclusive results, whose numbers are uncertain, are shown with a selection of clear calls. The call rests on the fitted dose curve; in most records, active means well fitted inhibition curve with a large enough effect in the signal ratio, with a control signal flat (not every such curve was filed as active); inconclusive means small, poorly fitted or top-dose-only effect, or effect the other way, or a change in a side signal; inactive means flat fitted curve, though single readings scatter; the % refers to the signal ratio. Where the call is inconclusive, the potency comes from a doubtful curve fit.
Potency means the concentration at half of the fitted maximal effect.

Test: qHTS Assay to Find Inhibitors of Chronic Active B-Cell Receptor Signaling;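 on activity change, negative = inhibition: plate controls were basal doxycycline-induced cells for no effect and cells given 10 µM MG132 for full effect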
Details: ABC-DLBCL IkBa-CBG/CBR reporter, luminescence ratio (green luciferase fused to IkBa over red control in TMD8 lymphoma cells), 4 h; activity change, negative = inhibition: at 46.1 µM (top of the series)
Procedure, shortened: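 Doxycycline induced both beetle luciferases in TMD8 lymphoma cells; IKK-driven degradation limits the IkappaBalpha-fused green signal, while red luminescence normalises for cell number and nonspecific effects. Compounds tested up to 46 uM, 4 hrs.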
For CCCCCCOc1ccc(/C=C/C(=O)N2CCOCC2)cc1OC, the activity change, negative = inhibition was inconclusive: 5.74%. With COc1ccc(O)c(CN2CCN(CCCc3ccccc3)C(CCO)C2)c1 (configuration not stated) the “activity change, negative = inhibition” value was inactive: -4.6%. For COc1ccc(-c2cc(=O)oc3c(C)c(O)c(CN(C)C)cc23)cc1, the activity change, negative = inhibition was inconclusive: -14.5%. In the case of Cc1ccc(C(=O)O)cc1-c1ccc(C=C2C(=O)c3ccccc3C2=O)o1, the activity change, negative = inhibition was inconclusive: -5.07%. In the case of COc1cc(CC(=O)OCC(=O)N2CCCCC2)cc(OC)c1OC, the “activity change, negative = inhibition” value was inactive: -3.94%. With O=C(Nc1nccs1)C12CC3CC(C1)CC(C(=O)Nc1nccs1)(C3)C2 the activity change, negative = inhibition was inconclusive: -13.8%. For COc1cc(/C=C/C(=O)OCC(=O)Nc2ccccc2Sc2ccc(Cl)cc2)ccc1O, the activity change, negative = inhibition was inconclusive: -5.46%. In the case of O=[N+]([O-])c1cccc(CNc2ccc3c(c2)CCC3)c1, the activity change, negative = inhibition was inconclusive: -1.06%. For CC(=O)N(C)c1nc(-c2ccc(Cl)cc2)cs1, the activity change, negative = inhibition was inconclusive: 1.49%. For CCOC(=O)c1ccc(N2CCN(c3cccc(Cl)c3)CC2)c(NC(=O)Nc2ccc(OC)cc2OC)c1, the activity change, negative = inhibition was inconclusive: -0.814%. In the case of COc1ccc(/C=C/C(=O)Nc2c(C)nn(C)c2C)cc1COc1ccc(Cl)cc1Br, the activity change, negative = inhibition was inconclusive: -12%. With N/C(=N\OC(=O)CSc1ccccc1)c1cccc([N+](=O)[O-])c1 the activity change, negative = inhibition was inconclusive: 10.7%. With CCOC(=O)c1c(NC(=S)Nc2ccccc2C)sc2c1CCC2 the activity change, negative = inhibition was inconclusive: 18.3%. In the case of O=C(NCCc1ccccc1)c1cc2sccc2n1Cc1ccccc1, the activity change, negative = inhibition was inconclusive: 2.79%. In the case of O=C(CC(c1ccccc1)c1ccccc1)Nc1ncn[nH]1, the activity change, negative = inhibition was inconclusive: -3.36%. For O=C(CCCc1ccccc1)Nc1cccc(C(=O)O)c1, the Potency was inconclusive: 0.794 µM [rising, full curve, poor fit]. In the case of CC(=O)Nc1cc(C(=O)NCc2ccc(C)cc2)ccc1Sc1ccc(C)cc1, the “activity change, negative = inhibition” value was inactive: 4.82%. With NC(=S)NNC(=O)c1cccc(Cl)c1 the activity change, negative = inhibition was inconclusive: 4.69%. In the case of COc1ccc(CCNC(=O)[C@H](C)N2C(=O)N3CCc4c([nH]c5ccccc45)[C@@]3(C)C2=O)cc1, the activity change, negative = inhibition was inconclusive: 0.725%. For O=C(N/N=C(\c1ccccc1)c1cccnc1)c1cccc(F)c1, the Potency was inconclusive: 28.2 µM [falling, single point]. In the case of Cc1cc(-n2c(SCC(=O)NCc3cccs3)nc3n[nH]c(C)c3c2=N)ccc1Cl, the “activity change, negative = inhibition” value was inactive: 0.72%. For O=C(Nc1cc2c3c(c1)CC(=O)N3CCC2)c1ccc(Br)cc1, the activity change, negative = inhibition was inconclusive: -10.7%. In the case of Cc1ccc(Cl)cc1N1CCN(C(=S)NCc2ccco2)CC1, the activity change, negative = inhibition was inconclusive: 8.31%. With Cc1ccc(CNC(=O)Nc2ccc(OC(F)(F)F)cc2)n1C the activity change, negative = inhibition was inconclusive: -0.456%. In the case of COC(=O)c1[nH]c2ccccc2c1NC(=O)CN1CCN(C/C=C/c2ccccc2)CC1, the Potency was inconclusive: 11.2 µM [falling, single point]. With O=C(Cn1cc2c(n1)CCCCC2)NCc1cccs1 the Potency was inconclusive: 35.5 µM [falling, single point]. With Cc1cc(C)cc(-n2c(SCC(=O)Nc3cccc(S(=O)(=O)NC4=NCCCCC4)c3)nc3ccccc3c2=O)c1 the activity change, negative = inhibition was inconclusive: 12.6%. For c1ccc(-n2nnnc2SCc2cn3cccnc3n2)cc1, the “activity change, negative = inhibition” value was inactive: 0.697%. With Cn1c2ccccc2c(=O)n2c(=O)c3ccccc3cc12 the Potency was inconclusive: 31.6 µM [falling, single point]. For O=C(Nc1ccn(C2CC(OC(=O)c3ccccc3)C(CO)O2)c(=O)n1)c1ccccc1 (configuration not stated), the activity change, negative = inhibition was inconclusive: -1.57%. In the case of CN1CCN(c2ccc(CNS(=O)(=O)Cc3ccc(Cl)cc3)cc2)CC1, the “activity change, negative = inhibition” value was inactive: 14.5%. With CC(=O)Cn1c2ccccc2n2nc(CCC(=O)O)c(=O)nc12 the activity change, negative = inhibition was inconclusive: 7.83%. With CSc1ccc(/C=C/C(=O)N2CCN(c3ccccn3)CC2)cc1 the activity change, negative = inhibition was inconclusive: 200% [cytotoxic]. For CCCN(C(=O)Cc1c(C(=O)O)n(C)c2ccccc12)c1cccc(C)c1, the “activity change, negative = inhibition” value was inactive: 5.77%. With Nc1ccc(-c2cc(-c3cccc(N)c3)nc(-c3ccccc3)n2)cc1 the activity change, negative = inhibition was inconclusive: -3.43%. With CN(C)c1ccc(C2Nc3cccc4cccc(c34)N2)cc1 the activity change, negative = inhibition was inconclusive: -3.65%. For Cc1csc(N/N=C/c2ccccn2)n1, the Potency was inconclusive: 35.5 µM [cytotoxic, single point]. In the case of Nn1cnnc1N/N=C/c1ccc(Cl)cc1Cl, the Potency was inconclusive: 17.8 µM [falling, partial curve, poor fit]. With O=C(c1ccccc1)c1ccc2cc(O)ccc2c1 the activity change, negative = inhibition was inconclusive: 11.5%. In the case of COC(=O)c1cc(-c2c(C)nn(-c3ccccc3)c2C)n[nH]1, the Potency was inconclusive: 6.51 µM [falling, single point]. In the case of CCc1[nH]nc2c1C(Cc1ccccc1)C(C#N)=C(N)O2 (configuration not stated), the activity change, negative = inhibition was inconclusive: 12.8%. With COCCCNC(=O)CN(c1cc(C(F)(F)F)ccc1Cl)S(C)(=O)=O the activity change, negative = inhibition was inconclusive: 2.49%. For CNCC(=O)Nc1ccc(OC(F)(F)F)cc1, the “activity change, negative = inhibition” value was inactive: 3.53%. With Cc1cc(C(=O)COC(=O)c2ccc(O)cc2)c(C)n1CC1COc2ccccc2O1 (configuration not stated) the activity change, negative = inhibition was inconclusive: -1.75%. With COc1ccc(C(c2c(C)[nH][nH]c2=O)c2c(C)[nH][nH]c2=O)cc1Br the activity change, negative = inhibition was inconclusive: -15.5%. For CCOC(=O)c1c(CN2CCN(C)CC2)oc2ccc(O)cc12, the activity change, negative = inhibition was inconclusive: -2.4%. In the case of Cc1ccc(S(=O)(=O)N2CCCCC2)cc1NC(=O)c1cncc(Br)c1, the activity change, negative = inhibition was inconclusive: 6.51%. With c1ccc2c(c1)nc(NCc1ccc3c(c1)OCO3)n2CCN1CCOCC1 the Potency was inconclusive: 17.8 µM [falling, partial curve, poor fit]. With COc1ccc(C)cc1S(=O)(=O)Nc1cc2c3c(c1)C(C)C(=O)N3CCC2 (configuration not stated) the activity change, negative = inhibition was inconclusive: -14.2%. In the case of O=C(COc1ccccc1Cl)N1CCN(c2ccc(F)cc2)CC1, the activity change, negative = inhibition was inconclusive: -4.68%. With C=CCN(CC=C)C(=O)c1ccc(OC2CCN(C(C)=O)CC2)c(OC)c1 the “activity change, negative = inhibition” value was inactive: -6.66%. In the case of O=S(=O)(c1ccccc1F)N1CCN(Cc2nc3ccccc3[nH]2)CC1, the activity change, negative = inhibition was inconclusive: 12%. With Oc1ccc(Br)cc1/C=N/n1c(COc2ccccc2)n[nH]c1=S the activity change, negative = inhibition was inconclusive: 12.1%. With O=C(CCc1nnc(Cc2ccc3c(c2)OCO3)o1)N(CC1CCC1)CC1CCCO1 (configuration not stated) the activity change, negative = inhibition was inconclusive: 10.3%. With O=C(/C=C/c1ccccc1Cl)c1ccccc(=O)c1O the Potency was inconclusive: 18.4 µM [falling, single point]. For OC(CNCCC1C=Nc2ccccc21)Cn1c2ccc(Cl)cc2c2cc(Cl)ccc21 (configuration not stated), the activity change, negative = inhibition was inconclusive: 17.1%. For CC(=O)Oc1c(-c2ccc(Br)o2)oc2ccccc2c1=O, the “activity change, negative = inhibition” value was inactive: -16.5%. With CCN(CC)C(=O)[C@H]1C[C@H](CC(=O)NC/C=C(\C)CCC=C(C)C)C(=O)N2CCc3c([nH]c4cc(CCC(=O)N(C)C)ccc34)[C@]12C the Potency was inconclusive: 14.6 µM [falling, partial curve, poor fit]. With O=C(NCc1ccco1)C(c1ccccc1)N(CC1CCCO1)C(=O)Cn1nnc2ccccc21 (configuration not stated) the activity change, negative = inhibition was inconclusive: -0.645%. With O=C(c1ccco1)N1N=C(c2cccs2)CC1c1ccc(F)cc1 (configuration not stated) the activity change, negative = inhibition was inconclusive: 11.5%. In the case of Cn1c(SCC(=O)c2ccc(F)cc2)ncc(C(=O)Nc2ccccc2)c1=O, the activity change, negative = inhibition was inconclusive: 1.43%. For O=C1CN(C(=O)COC(=O)c2ccc[n+]([O-])c2)c2ccccc2N1, the activity change, negative = inhibition was inconclusive: 3.44%. For CC(C)c1nnc(NC(=O)CC(C)c2ccccc2)s1 (configuration not stated), the “activity change, negative = inhibition” value was inactive: 5.66%. In the case of CCCCN(CC)CCNC(=O)c1cn(-c2ccc(Cl)cc2)c(=O)c2ccccc12, the “activity change, negative = inhibition” value was inactive: 10.4%. In the case of Cc1ccccc1OCc1nc(-c2ccccc2)no1, the activity change, negative = inhibition was inconclusive: 4.58%. In the case of Cc1ccc(NC(=O)COC(=O)Cn2c(C)csc2=O)c([N+](=O)[O-])c1, the activity change, negative = inhibition was inconclusive: 12.6%. In the case of Cc1cccc(NC(=S)N=Nc2c(O)n(CN3CCOCC3)c3ccccc23)c1C, the Potency was inconclusive: 2.91 µM [falling, full curve]. In the case of Cc1ccc(-c2nnc(-c3ccccc3S(=O)(=O)Cc3ccc(Cl)cc3)o2)cc1, the activity change, negative = inhibition was inconclusive: -0.303%. For Cc1ccc(NC(=O)C2CCCN2C(=O)OC(C)(C)C)cc1C (configuration not stated), the “activity change, negative = inhibition” value was inactive: -1.31%. In the case of COc1ccc(NC(=O)C(=O)NCCC2CCCCN2S(=O)(=O)c2ccccc2)cc1 (configuration not stated), the “activity change, negative = inhibition” value was inactive: -2.88%. With CC(=O)N/N=C/c1c(C)[nH]n(-c2ccccc2)c1=O the “activity change, negative = inhibition” value was inactive: 21.9%. In the case of O=C1N=C(c2ccccc2)S/C1=C\c1cccs1, the activity change, negative = inhibition was inconclusive: 28.7%. In the case of CN(CC(=O)Nc1ccc(Cl)cc1)C1CCCCC1, the Potency was inconclusive: 12.6 µM [falling, partial curve]. In the case of CNS(=O)(=O)c1cccc(C(=O)OCC(=O)Nc2ccc(-c3nc4ccc(C)cc4s3)cc2)c1, the activity change, negative = inhibition was inconclusive: 6.05%. With Cc1cccc(CCNC(=O)CCc2nnc(CCc3ccccc3)o2)n1 the activity change, negative = inhibition was inconclusive: 6.64%. For Cn1ccnc1SCC(=O)Nc1sccc1C#N, the activity change, negative = inhibition was inconclusive: 8.98%. With CC(CN1CCOCC1)OC(=O)C(C)(c1ccccc1)c1ccccc1 (configuration not stated) the Potency was inconclusive: 0.103 µM [falling, full curve, poor fit]. With CCC(=NCCc1ccc(OC)c(OC)c1)c1ccccc1O the activity change, negative = inhibition was inconclusive: -1.24%. With Cc1sc2cc3c(c(C(=O)c4ccccc4)[n+]2c1C)-c1cccc2cccc-3c12 the activity change, negative = inhibition was inconclusive: -15.4%. In the case of Cc1c(N=Nc2c(-c3ccc([N+](=O)[O-])cc3)[nH]n(C(N)=S)c2=O)cccc1[N+](=O)[O-], the Potency was inconclusive: 2.82 µM [cytotoxic, full curve, poor fit]. In the case of O=C(c1cccn(Cc2cccc(Cl)c2)c1=O)N1CCOCC1, the “activity change, negative = inhibition” value was inactive: -8.28%. In the case of CN1CCc2ccccc2C1Cc1ccccc1NC(=O)c1sc2ccccc2c1Cl (configuration not stated), the Potency was inconclusive: 28.2 µM [falling, single point].
